{"source": "patent US8440695B2", "about": "(St Jude Children's Research Hospital, priority 2005, dated 2013)", "test": "Body weight, metabolic rate (indirect calorimetry) and fasting serum lipids in mice", "format": "in vivo, mouse", "conditions": "ATM^+/+ apoE^−/− mice, 7 mg/kg/week, 8 weeks", "data": [{"compound": "CCN(CC)CCCC(C)Nc1ccnc2cc(Cl)ccc12", "note": "(centres unmarked) [chloroquine, N4-(7-Chloro-4-quinolinyl)-N1,N1-diethyl-1,4-pentanediamine]", "values": [{"measurement": "body weight", "result": "no effect"}, {"measurement": "metabolic rate (indirect calorimetry)", "result": "no effect"}]}]}
